According to patent US20250120928A1, “SUBEROYLANILIDE HYDROXAMIC ACID (SAHA) DRUGS, CONJUGATES, AND NANOPARTICLES, AND METHODS OF USE THEREOF” (University of Maryland, Baltimore, priority 2021, published 2025):

System: unstimulated BMMØs
Assay: MTS assay
Assay type: cell-based, C57BL/6J mice
Conditions: Mus musculus; unstimulated BMMØs treated for 48 hours; read-out: IC50 (MTS assay, cellular proliferation)
Protocol: The cytotoxicity of SAHA and SAHA-OH was evaluated using an MTS assay (Abcam; Cambridge, MA). […] BMMØs were pre-treated with various concentrations of SAHA or SAHA-OH for 48 hours. Cells were then washed with PBS and 50 μL of MTS solution was added to each well and incubated for 1 hour. The optical density (O.D.) of the solution was measured using a SpectraMax iD3 microplate reader at 570 nm. The percentage of cell proliferation was measured as the ratio of O.D. at 570 nm to no treatment control. IC50 values were calculated using GraphPad Prism 9 program based on a sigmoidal dose-response equation.

## O=C(CCCCCCC(=O)Nc1ccccc1)NO [SAHA, N^1-hydroxy-N^8-phenyloctanediamide]
  IC50: 500 nM
